Experimental data reported in US7812014B2, “Bicyclic 6-alkylidene-penems as β-lactamase inhibitors” (priority 2002, dated 2010).
Structures can show the parent of a compound that is named as a salt.

System: Clinical isolates that have been adapted to cause infection in mice
Experiment: In vivo antibacterial protection, 7 day survival of infected mice
Set-up: species or system mice strain CD-1
Details: Mus musculus, 168 h, read-out: ED50 mg/kg
Excerpt: In Vivo Antibacterial Protection
Female mice strain CD-1, approximately 18-22 grams, were received from Charles River Laboratories and quarantined 7 days prior to use. In addition, mice may be rendered neutropenic using cytoxan.
Clinical isolates that have been adapted to cause infection in mice, are used in the experiment, including infections with strains of E. coli, K. pneumoniae, M. morganii, E. cloacae, S. marcescens, C. freundii, staphylococci, streptococci, P. aeruginosa and N. gonorrhoeae.
Mice are challenged by injecting 0.5 ml intraperitoneally or 0.05 ml intranasally of a predetermined bacterial inoculum suspended in broth, saline or hog gastric mucin (supplemented with dried bovine hemoglobin for N. gonorrhoeae). […] Antibacterial doses (dose concentration prepared by two fold serial dilutions of the antibiotic) are dissolved or suspended in 0.2% aqueous agar or methocel, phosphate buffered saline or an adjuvant are administered orally, subcutaneously or intravenously in the following manner: • a) Orally or subcutaneously: Dose volume of 0.5 ml administered ½ hr after infection. […]
The protective effects of the antibacterial agent(s) are measured by the survival of the infected untreated as compared to the treated animals. […]

Q: Which ED50 does the source give for `O=C(O)C1=CS[C@@H]2/C(=C\c3cc4n(n3)CCC4)C(=O)N12` [Example 8, (5R),(6Z)-6-(5,6-Dihydro-4H-pyrrolo[1,2-b]pyrazol-2-ylmethylene)-7-oxo-4-thia-1-azabicyclo[3.2.0]hept-2-ene-2-carboxylic acid, sodium salt] here?
A: 18.9 mg/kg
